Some of these results come from one statement about several compounds together.
Tested on: Daudi lymphoma tumor model
Experiment: Pooled Daudi xenograft studies and assessment of synergistic activity (Example 5)
Type: in vivo, BALB/c nude mice
Details: pooled studies, vs. vehicle
Method: Passaged, clonally derived Daudi cells (5×10^6 cells/mouse) were reconstituted with 50% Matrigel (BD Biosciences) in a total volume of 0.1 ml and implanted subcutaneously into the right flank of irradiated (3Gy) BALB/c nude mice. Treatments were initiated when the mean tumor volume was 150-300 mm^3. Mice were randomly assigned typically into 10 mice per group. […] Tumor volume is measured using calipers. Caliper measurements of tumors were converted into tumor volume (mm^3) using the formula: ½ (length (mm)×[width (mm)]^2). Tumor growth inhibition (TGI) was calculated as [1−(mean tumor volume of treated group/mean tumor volume of control group)×100]. […] Tumor growth delay (TGD) analysis was calculated as: [(number of days for a treated group to reach a mean tumor volume of 1000 mm^3)−(number of days for the control group to reach a mean tumor volume of 1000 mm^3)]. Percent conditional survival is the percent of mice in each group in which the tumor volume has not reached 1000 mm^3.
Multiple comparisons were performed using one-way analysis of variance (ANOVA); post-test to compare different treatment means was done using Student-Newman Keuls test (SigmaStat). Tumor growth delay for each animal (time to 1000 mm^3) was used as the endpoint for conditional survival, and significance between treatments was analysed using a log rank test (Prism). […]

Row | SMILES | TGI (listed as doxorubicin) | TGI (listed as prednisone)
1 | COc1cccc2c1C(=O)c1c(O)c3c(c(O)c1C2=O)C[C@@](O)(C(=O)CO)C[C@@H]3O[C@H]1C[C@H](N)[C@H](O)[C@H](C)O1 [Doxorubicin] | < 15% | 
2 | C[C@]12C=CC(=O)C=C1CC[C@@H]1[C@@H]2C(=O)C[C@@]2(C)[C@H]1CC[C@]2(O)C(=O)CO [Prednisone] |  | < 15%

From US20060251617A1, “Methods for treating lymphomas” (Chiron Corporation, priority 2005, published 2006)
